Some of the results follow. Shown are side measurements of this screen, not its main read-out; they come without a call. The list favours compounds with an active or inconclusive main result. The note in brackets gives the kind of curve behind each potency; many fits are weak.
Assay: qHTS Assay to Find Inhibitors of Chronic Active B-Cell Receptor Signaling
Details: ABC-DLBCL IkBa-CBG/CBR reporter, luminescence ratio (green luciferase fused to IkBa over red control in TMD8 lymphoma cells), 4 h
In short: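 Compounds up to 46 uM were incubated four hours with TMD8 cells whose green CBG68 luciferase is fused to IkappaBalpha; red CBR luminescence normalised the signal, and concentration-effect curves were fitted to fusion, red and ratio data.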

[1] = measured here: CBR red luminescence, cell number
[2] = measured here: IkBa-CBG green luminescence

CC1CN/C(=C\C(=O)c2ccccc2)C(=O)N1 (centres undefined)
AC50 [1]: 2.82 µM [falling, full curve]

Cc1onc(-c2c(F)cccc2Cl)c1C(=O)Nc1nc2ccccc2[nH]1
AC50 [1]: 14.6 µM [falling, partial curve, poor fit]

CCN(CC)C(=O)COc1ccc(-c2nnc(N3CCCCC3)c3ccccc23)cc1
AC50 [1]: 6.51 µM [rising, single point]

NNC(=O)c1cc(-c2cccs2)nc2ccccc12
AC50 [1]: 3.16 µM [falling, single point] | AC50 [2]: 35.5 µM [falling, single point]

CC(=O)c1cccc(NC(=O)c2cc(-c3ccc(C)cc3)on2)c1
AC50 [1]: 0.82 µM [falling, partial curve, poor fit]

O=C(COc1cccc2cccnc12)Nc1nccs1
AC50 [1]: 2.51 µM [falling, full curve]

O=C(CCC1CCCC1)NCCS(=O)(=O)N1CCN(c2ccccc2F)CC1
AC50 [1]: 6.51 µM [rising, single point]

COc1ccc(NC(=O)C2CCN(c3cc(C)nc(-c4ccccc4)n3)CC2)cc1
AC50 [1]: 2.91 µM [falling, full curve]

CN(C)c1ccnc(SCc2ccccc2Cl)c1C#N
AC50 [1]: 35.5 µM [falling, single point]

c1ccc(-c2nc(N3CCOCC3)c3ccccc3n2)nc1
AC50 [1]: 29.1 µM [falling, single point]

CCc1cc2c(=O)oc(-c3ccccc3F)nc2s1
AC50 [1]: 7.08 µM [falling, partial curve]

COc1ccc(Cl)cc1NC(=O)/C=C\C(=O)O
AC50 [1]: 5.17 µM [falling, partial curve, poor fit]

CC(=O)c1cccc(NC(=O)CSC(=O)c2ccccc2)c1
AC50 [1]: 16.4 µM [falling, partial curve, poor fit]

Nc1cc2sc(-c3ccc(C(=O)O)cc3)nc2cc1Cl
AC50 [1]: 0.0366 µM [falling, full curve]

O=S(=O)(c1cccc(Cn2nnc(-c3ccc(F)cc3)n2)c1)N1CCOCC1
AC50 [1]: 35.5 µM [falling, single point]

O=C(Nc1ccccc1)c1ccc2snnc2c1
AC50 [1]: 35.5 µM [falling, single point]

CCc1sc(Nc2ccc(Cl)cc2)nc1-c1cc2cccc(OC)c2oc1=O
AC50 [1]: 15.8 µM [falling, partial curve]

COC(=O)c1ccc(COc2ccc(/C=N/Nc3cccc(C(=O)O)c3)cc2)cc1
AC50 [1]: 11.2 µM [falling, partial curve, poor fit]

CC(=O)N/C(=C\c1ccccc1)C(=O)OCc1ccc(C)cc1
AC50 [1]: 0.447 µM [rising, partial curve, poor fit]

O=C(Nc1ccc(F)cc1)OCCOc1ccc(Br)cc1
AC50 [1]: 11.2 µM [rising, partial curve, poor fit]

O=c1oc2ccccc2nc1/C=C(O)/C=C\c1ccccc1
AC50 [1]: 9.2 µM [falling, partial curve]

COc1ccc(S(=O)(=O)n2cnc3cc(C)c(C)cc32)cc1C
AC50 [1]: 25.9 µM [falling, single point]

NC(N)=Nc1nc2ccc(Br)cc2c(=O)[nH]1
AC50 [1]: 20 µM [rising, single point]

CCN(CC)S(=O)(=O)c1cc(NS(=O)(=O)c2cccc(Cl)c2)ccc1C
AC50 [1]: 13 µM [falling, partial curve, poor fit] | AC50 [2]: 5.17 µM [rising, partial curve, poor fit]

COc1ccc(-c2nc3c(Br)c(N)c(Br)cc3o2)cc1
AC50 [1]: 0.316 µM [rising, full curve, poor fit]

O=S(=O)(c1ccc2c(c1)OCCO2)N1CCN(Cc2ccc3c(c2)OCO3)CC1
AC50 [1]: 0.411 µM [falling, partial curve, poor fit]

COC(=O)c1cc(C)nc2c1C(=O)C(=O)C=C2N1CCOCC1
AC50 [1]: 7.08 µM [falling, full curve, poor fit]

O=C(CCC(=O)N1CCN(c2ccc(O)cc2)CC1)c1cccs1
AC50 [1]: 6.31 µM [rising, single point]

CCN(CC)CCN1C(=O)c2oc3ccccc3c(=O)c2C1c1ccccc1 (centres undefined)
AC50 [1]: 12.6 µM [falling, partial curve, poor fit]

CCOC(=O)CSc1nc(N)c(C#N)c(-c2cccs2)c1C#N
AC50 [1]: 7.08 µM [falling, full curve, poor fit]

CCOC(=O)N1CCC(NC(=O)c2cc(C(=O)Nc3ccc(OC)c(OC)c3)ccc2CO)CC1
AC50 [1]: 2.82 µM [rising, single point]

CN(C)CC(=O)c1c[nH]c2ccccc12
AC50 [1]: 7.94 µM [falling, partial curve, poor fit]

O=C(CCc1ccccc1)NNc1ccc(F)cc1
AC50 [1]: 0.631 µM [rising, full curve, poor fit]

CCCn1cnc2cc(NCc3ccccn3)ccc21
AC50 [1]: 12.6 µM [falling, partial curve]

Cc1ccc(NC(=O)CCC(=O)N/N=C/c2ccccc2O)cc1
AC50 [1]: 12.6 µM [rising, single point]

C=CCNc1nc2ccccc2nc1NS(=O)(=O)c1cccs1
AC50 [1]: 32.6 µM [rising, single point]

COCCN1CCc2c(C)nc3c(-c4ccc(OC)c(OC)c4)cnn3c21
AC50 [1]: 14.1 µM [rising, partial curve, poor fit]

CCCCn1c(N)c(N(CC)C(=O)c2ccc(-c3ccc(Cl)cc3)o2)c(=O)[nH]c1=O
AC50 [1]: 0.82 µM [rising, partial curve]

Cc1cccc(C(=O)NCCCNC(=O)c2ccccn2)c1
AC50 [1]: 0.562 µM [rising, partial curve, poor fit]

CCN(C(=O)COC(=O)c1ccc(Cl)c(S(=O)(=O)N2CCCCC2)c1)C1CCS(=O)(=O)C1 (centres undefined)
AC50 [1]: 0.517 µM [falling, full curve]

Cc1csc(NC(=O)c2ccccc2)n1
AC50 [2]: 3.98 µM [rising, partial curve, poor fit]

Cc1nc2nc(SCc3c(F)cccc3Cl)nn2c(C)c1Cc1ccccc1
AC50 [1]: 14.1 µM [rising, single point]
